The other results are listed elsewhere or left out.

Amino acid sequences for entries named in this document (tags omitted). A change or cut given only in a name is not applied to a line headed by its entry.
UniProt Q9C0C7: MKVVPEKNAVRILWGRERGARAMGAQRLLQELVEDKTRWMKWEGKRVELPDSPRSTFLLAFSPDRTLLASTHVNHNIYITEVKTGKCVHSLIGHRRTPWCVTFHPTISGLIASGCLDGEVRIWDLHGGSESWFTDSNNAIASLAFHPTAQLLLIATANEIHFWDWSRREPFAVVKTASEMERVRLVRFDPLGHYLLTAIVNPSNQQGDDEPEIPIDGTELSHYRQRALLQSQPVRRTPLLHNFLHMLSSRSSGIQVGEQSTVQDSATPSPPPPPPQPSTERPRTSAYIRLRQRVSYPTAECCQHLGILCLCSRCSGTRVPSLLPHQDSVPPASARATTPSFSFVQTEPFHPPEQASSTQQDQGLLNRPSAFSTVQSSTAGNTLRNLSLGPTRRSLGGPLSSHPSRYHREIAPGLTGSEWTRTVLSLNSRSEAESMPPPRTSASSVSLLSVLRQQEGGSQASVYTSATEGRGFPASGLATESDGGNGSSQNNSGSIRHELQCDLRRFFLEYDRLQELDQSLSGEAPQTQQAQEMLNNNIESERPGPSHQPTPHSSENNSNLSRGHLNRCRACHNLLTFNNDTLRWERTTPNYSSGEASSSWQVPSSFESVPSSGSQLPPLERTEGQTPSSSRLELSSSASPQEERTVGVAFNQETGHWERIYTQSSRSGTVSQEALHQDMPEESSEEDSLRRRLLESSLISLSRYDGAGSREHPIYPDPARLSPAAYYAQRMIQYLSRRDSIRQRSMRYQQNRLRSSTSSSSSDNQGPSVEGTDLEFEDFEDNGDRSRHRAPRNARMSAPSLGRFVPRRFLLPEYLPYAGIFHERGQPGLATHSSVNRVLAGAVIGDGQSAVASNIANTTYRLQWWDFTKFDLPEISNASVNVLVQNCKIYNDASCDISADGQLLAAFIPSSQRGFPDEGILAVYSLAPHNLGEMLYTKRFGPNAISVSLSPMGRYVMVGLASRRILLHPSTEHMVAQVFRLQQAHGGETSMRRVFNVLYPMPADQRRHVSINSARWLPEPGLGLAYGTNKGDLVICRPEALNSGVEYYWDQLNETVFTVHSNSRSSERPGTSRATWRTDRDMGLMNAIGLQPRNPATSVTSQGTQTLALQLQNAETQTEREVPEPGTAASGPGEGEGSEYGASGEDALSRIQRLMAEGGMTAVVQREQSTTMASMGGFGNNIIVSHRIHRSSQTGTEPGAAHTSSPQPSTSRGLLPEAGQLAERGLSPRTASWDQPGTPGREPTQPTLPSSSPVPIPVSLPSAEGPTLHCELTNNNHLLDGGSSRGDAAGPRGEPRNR
UniProt Q9BXX3: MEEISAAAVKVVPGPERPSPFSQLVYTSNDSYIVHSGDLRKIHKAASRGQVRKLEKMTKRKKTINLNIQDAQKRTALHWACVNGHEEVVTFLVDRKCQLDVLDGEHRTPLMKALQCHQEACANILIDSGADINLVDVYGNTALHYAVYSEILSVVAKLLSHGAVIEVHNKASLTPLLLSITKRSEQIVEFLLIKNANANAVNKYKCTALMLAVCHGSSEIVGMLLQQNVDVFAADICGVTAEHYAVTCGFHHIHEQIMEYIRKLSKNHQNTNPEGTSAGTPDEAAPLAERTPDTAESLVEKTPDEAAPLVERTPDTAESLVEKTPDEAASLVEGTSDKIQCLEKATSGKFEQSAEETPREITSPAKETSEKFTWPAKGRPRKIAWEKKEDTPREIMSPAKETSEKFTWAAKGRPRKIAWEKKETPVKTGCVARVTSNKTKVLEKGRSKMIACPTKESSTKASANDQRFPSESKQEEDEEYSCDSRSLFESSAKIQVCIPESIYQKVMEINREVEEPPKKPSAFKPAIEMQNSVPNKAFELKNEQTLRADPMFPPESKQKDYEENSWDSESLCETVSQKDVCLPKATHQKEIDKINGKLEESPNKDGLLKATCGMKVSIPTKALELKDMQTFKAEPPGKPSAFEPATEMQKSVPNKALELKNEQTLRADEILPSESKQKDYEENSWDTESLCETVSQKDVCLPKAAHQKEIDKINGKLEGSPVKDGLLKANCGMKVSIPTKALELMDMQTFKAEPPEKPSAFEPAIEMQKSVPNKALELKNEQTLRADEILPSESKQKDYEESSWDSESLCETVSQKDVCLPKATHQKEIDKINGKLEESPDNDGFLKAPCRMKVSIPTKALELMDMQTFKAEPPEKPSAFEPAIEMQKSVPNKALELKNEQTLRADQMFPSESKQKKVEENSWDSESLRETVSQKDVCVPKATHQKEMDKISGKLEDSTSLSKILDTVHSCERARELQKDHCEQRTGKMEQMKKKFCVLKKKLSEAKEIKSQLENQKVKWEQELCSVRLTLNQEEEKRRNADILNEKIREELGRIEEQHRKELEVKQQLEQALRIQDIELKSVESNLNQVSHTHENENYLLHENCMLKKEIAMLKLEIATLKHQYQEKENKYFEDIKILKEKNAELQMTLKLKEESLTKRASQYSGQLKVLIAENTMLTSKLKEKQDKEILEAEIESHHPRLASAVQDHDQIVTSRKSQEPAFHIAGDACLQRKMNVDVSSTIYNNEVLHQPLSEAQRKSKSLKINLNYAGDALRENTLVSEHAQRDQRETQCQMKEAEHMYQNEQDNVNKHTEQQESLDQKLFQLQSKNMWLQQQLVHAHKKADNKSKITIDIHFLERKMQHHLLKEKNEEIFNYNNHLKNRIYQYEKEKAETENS
UniProt Q9ULJ7: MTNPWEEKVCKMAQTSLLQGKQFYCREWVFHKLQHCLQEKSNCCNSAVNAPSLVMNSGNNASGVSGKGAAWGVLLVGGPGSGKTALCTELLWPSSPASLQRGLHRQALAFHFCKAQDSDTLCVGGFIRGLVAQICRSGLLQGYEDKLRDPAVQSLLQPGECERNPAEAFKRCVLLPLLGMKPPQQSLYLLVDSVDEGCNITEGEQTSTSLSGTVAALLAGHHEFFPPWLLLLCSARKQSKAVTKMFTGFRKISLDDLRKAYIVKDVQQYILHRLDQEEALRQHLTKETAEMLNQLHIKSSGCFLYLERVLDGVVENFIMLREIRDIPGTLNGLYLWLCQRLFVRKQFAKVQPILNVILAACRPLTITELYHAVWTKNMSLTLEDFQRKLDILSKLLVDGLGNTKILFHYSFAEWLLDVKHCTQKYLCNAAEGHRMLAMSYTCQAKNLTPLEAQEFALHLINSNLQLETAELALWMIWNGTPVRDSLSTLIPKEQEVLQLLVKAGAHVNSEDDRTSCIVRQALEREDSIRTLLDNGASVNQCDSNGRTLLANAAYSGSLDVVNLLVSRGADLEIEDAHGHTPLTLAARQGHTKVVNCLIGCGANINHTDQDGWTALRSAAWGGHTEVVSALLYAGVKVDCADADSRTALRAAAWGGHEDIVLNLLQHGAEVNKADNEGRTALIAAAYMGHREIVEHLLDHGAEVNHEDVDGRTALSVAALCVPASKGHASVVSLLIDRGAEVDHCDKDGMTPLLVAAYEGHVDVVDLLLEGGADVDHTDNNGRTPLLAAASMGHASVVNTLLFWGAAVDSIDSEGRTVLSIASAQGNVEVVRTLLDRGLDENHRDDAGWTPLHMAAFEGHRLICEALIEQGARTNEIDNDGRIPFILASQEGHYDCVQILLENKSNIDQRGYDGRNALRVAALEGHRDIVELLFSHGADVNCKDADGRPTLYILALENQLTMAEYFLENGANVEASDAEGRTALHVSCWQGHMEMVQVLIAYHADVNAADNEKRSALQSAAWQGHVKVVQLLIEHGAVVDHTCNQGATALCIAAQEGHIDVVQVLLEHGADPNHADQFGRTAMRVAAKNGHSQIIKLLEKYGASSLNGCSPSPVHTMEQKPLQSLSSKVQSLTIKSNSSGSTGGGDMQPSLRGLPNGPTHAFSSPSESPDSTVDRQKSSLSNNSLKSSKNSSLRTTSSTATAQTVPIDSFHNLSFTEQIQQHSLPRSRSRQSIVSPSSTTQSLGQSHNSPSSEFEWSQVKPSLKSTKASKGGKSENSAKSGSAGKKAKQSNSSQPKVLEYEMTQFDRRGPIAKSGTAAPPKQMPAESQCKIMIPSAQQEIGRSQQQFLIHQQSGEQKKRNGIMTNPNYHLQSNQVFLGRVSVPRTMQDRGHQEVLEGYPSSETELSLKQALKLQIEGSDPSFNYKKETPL
UniProt Q9HCJ1: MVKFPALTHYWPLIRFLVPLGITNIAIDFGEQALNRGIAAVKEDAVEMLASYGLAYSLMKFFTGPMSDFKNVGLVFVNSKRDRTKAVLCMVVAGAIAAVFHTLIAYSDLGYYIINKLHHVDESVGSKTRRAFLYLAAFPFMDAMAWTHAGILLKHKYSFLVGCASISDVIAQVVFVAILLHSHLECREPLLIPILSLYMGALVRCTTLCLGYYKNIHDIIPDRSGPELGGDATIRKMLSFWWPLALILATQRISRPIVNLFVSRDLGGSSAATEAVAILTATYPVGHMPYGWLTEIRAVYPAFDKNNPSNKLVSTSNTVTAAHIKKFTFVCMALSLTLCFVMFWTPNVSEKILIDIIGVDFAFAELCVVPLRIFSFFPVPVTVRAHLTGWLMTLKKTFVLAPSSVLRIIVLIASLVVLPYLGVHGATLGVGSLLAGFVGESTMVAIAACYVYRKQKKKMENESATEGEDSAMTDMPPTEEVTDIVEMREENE
UniProt Q9NYG5, whole entry, looked up: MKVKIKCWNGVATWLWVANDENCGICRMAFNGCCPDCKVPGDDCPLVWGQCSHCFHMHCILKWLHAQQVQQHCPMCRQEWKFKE
UniProt P30838: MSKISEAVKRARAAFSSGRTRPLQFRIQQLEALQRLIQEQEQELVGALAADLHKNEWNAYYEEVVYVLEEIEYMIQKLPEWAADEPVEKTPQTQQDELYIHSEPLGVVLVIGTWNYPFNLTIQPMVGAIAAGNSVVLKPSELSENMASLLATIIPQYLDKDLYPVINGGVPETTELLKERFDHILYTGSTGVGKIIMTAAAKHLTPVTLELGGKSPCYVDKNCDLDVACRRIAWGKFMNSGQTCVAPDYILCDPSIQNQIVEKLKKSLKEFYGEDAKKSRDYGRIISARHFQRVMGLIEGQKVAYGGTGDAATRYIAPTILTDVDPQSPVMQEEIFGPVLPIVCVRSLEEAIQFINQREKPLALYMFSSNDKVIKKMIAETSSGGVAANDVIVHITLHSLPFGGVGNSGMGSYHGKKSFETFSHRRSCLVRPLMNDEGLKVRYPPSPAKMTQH
UniProt Q92685: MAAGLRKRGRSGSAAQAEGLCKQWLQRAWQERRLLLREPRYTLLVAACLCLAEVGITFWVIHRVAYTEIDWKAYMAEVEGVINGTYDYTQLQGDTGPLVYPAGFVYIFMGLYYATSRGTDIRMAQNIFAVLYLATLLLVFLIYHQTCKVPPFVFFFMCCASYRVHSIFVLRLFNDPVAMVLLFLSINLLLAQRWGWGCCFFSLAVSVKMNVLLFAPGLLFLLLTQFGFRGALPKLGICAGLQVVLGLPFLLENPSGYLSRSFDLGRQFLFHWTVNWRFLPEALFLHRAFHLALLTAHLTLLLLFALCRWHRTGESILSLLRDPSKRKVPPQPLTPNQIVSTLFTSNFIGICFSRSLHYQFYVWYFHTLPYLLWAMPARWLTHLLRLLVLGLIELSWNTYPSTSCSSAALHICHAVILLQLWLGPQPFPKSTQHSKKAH
UniProt P13196: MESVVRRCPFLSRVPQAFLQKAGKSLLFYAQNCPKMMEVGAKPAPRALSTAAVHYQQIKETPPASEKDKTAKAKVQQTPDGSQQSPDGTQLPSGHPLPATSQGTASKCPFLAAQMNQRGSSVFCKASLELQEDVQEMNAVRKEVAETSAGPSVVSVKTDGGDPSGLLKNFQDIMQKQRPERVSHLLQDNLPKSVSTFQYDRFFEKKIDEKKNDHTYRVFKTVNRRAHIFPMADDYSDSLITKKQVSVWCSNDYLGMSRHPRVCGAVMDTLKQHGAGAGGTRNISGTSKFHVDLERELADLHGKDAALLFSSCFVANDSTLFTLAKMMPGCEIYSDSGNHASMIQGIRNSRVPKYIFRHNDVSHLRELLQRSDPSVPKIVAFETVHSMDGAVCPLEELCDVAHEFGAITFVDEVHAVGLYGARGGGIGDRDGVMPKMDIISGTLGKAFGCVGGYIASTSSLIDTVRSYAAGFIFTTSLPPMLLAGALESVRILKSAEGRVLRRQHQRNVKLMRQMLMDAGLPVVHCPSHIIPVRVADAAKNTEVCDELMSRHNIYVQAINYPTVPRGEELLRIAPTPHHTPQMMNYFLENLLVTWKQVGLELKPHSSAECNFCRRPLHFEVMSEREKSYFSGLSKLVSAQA
UniProt Q9H8T0: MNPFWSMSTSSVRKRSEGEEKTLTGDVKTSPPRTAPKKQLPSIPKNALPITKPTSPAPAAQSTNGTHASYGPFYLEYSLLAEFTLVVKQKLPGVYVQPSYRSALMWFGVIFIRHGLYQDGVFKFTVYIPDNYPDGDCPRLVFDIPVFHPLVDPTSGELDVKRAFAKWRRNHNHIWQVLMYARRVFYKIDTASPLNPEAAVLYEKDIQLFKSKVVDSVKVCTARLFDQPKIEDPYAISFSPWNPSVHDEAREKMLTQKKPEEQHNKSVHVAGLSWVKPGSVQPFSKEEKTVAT

Compound in one assay: CC1=C(C=C(C=C1)NC(=O)C2=CC(=CC=C2)C(C)(C)C#N)NC3=CC4=C(C=C3)N=CN(C4=O)C
Put plainly: log2 fold change, soluble protein after heating vs DMSO (PISA); higher = thermal stabilisation; K562 lysate, 10 uM; active = over 0.2 and 3.5 SD of the protein, either way, in both replicates (recomputed). In outline: (§1)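 K562 pellets were dounce-homogenised in PBS pH 7.4 with 1 mM MgCl2, and the crude extract at 1 mg/mL protein was treated with 10 μM compound for 30 min. Aliquots were heated for 3 min across 48°C-58°C, pooled, and brought to 0.5% NP-40 at 4°C; soluble protein was the supernatant after 21,000xg for 90 min. Soluble protein was quantified by TMTpro 16plex LC-MS/MS with channel sums equalised, and reported as log2 fold change in thermal stability against DMSO controls, with values from duplicates.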
For AMBRA1 isoform 5 (UniProt Q9C0C7), the log2 fold change is inactive: -0.031.

Regarding ANKRD31 (UniProt Q8N7Z5), the log2 fold change was inactive: -0.157.

Take ALG11 (UniProt Q2TAA5): the log2 fold change was inactive: -0.082.

On to ANKRD29 (UniProt Q8N6D5), for which the log2 fold change is inactive: 0.291.

As for ANKRD30A (UniProt Q9BXX3), the log2 fold change was inactive: -0.088.

For the target ANKRD40 (UniProt Q6AI12), the log2 fold change is inactive: 0.075.

In the case of ANAPC16 (UniProt Q96DE5), the log2 fold change is inactive: 0.079.

For ANXA6 (UniProt E5RK69), the log2 fold change is inactive: -0.01.

Take ANKHD1 isoform 2 (UniProt Q8IWZ3): the log2 fold change was inactive: -0.046.

For the target ANKRD50 (UniProt Q9ULJ7), the log2 fold change was inactive: 0.18.

For the target AP4M1 (UniProt O00189), the log2 fold change was inactive: 0.036.

Regarding AMOTL1 (UniProt Q8IY63), the log2 fold change was inactive: -0.005.

Consider ALDH9A1 (UniProt P49189), for which the log2 fold change was inactive: -0.039.

On to ANKH (UniProt Q9HCJ1), for which the log2 fold change was inactive: 0.005.

As to ANAPC11 (UniProt Q9NYG5), the log2 fold change is inactive: 0.12.

Consider ANKLE2 (UniProt Q86XL3), for which the log2 fold change was inactive: -0.002.

Regarding ANKRD16 (UniProt Q6P6B7), the log2 fold change was inactive: -0.023.

Turning to ANKS3 (UniProt Q6ZW76), the log2 fold change was inactive: 0.102.

With ALOX12B (UniProt O75342), the log2 fold change is inactive: -0.043.

For AP1B1 isoform 3 (UniProt Q10567), the log2 fold change was inactive: 0.213.

On to ALDH3A1 (UniProt P30838), for which the log2 fold change is inactive: 0.432.

Regarding ALG3 (UniProt Q92685), the log2 fold change is inactive: -0.024.

Consider ANK2 (UniProt Q01484), for which the log2 fold change is inactive: -0.048.

Compound in another assay: CC1=C(C=C(C=C1)NC(=O)C2=CC(=CC=C2)N(C)C)NC(=O)C3=CC=C(C=C3)O
Described as above. In outline: as §1
In the case of ALAS1 (UniProt P13196), the log2 fold change is inactive: 0.019.

In the case of AMBRA1 isoform 5 (UniProt Q9C0C7), the log2 fold change is inactive: 0.022.

As to ALG11 (UniProt Q2TAA5), the log2 fold change was inactive: -0.014.

With ANKRD13C (UniProt Q8N6S4), the log2 fold change was inactive: -0.024.

As to ANKRD30A (UniProt Q9BXX3), the log2 fold change was inactive: 0.077.

Regarding ANKRD40 (UniProt Q6AI12), the log2 fold change was inactive: 0.087.

In the case of ANAPC16 (UniProt Q96DE5), the log2 fold change was inactive: -0.03.

As to ANGPTL4 (UniProt M0R3A2), the log2 fold change was inactive: 0.077.

Turning to AKTIP isoform 2 (UniProt Q9H8T0), the log2 fold change is inactive: -0.287.

Regarding ANKHD1 isoform 2 (UniProt Q8IWZ3), the log2 fold change is inactive: 0.038.

For the target ANKHD1 (UniProt D6RHC4), the log2 fold change is inactive: -0.002.

For the target ANKRD50 (UniProt Q9ULJ7), the log2 fold change was inactive: 0.

As for AP4M1 (UniProt O00189), the log2 fold change was inactive: -0.022.

In the case of AMOTL1 (UniProt Q8IY63), the log2 fold change was inactive: -0.008.

With ALDH9A1 (UniProt P49189), the log2 fold change is inactive: -0.003.

With ANKH (UniProt Q9HCJ1), the log2 fold change was inactive: 0.011.

With ANAPC11 (UniProt Q9NYG5), the log2 fold change was inactive: 0.031.

ANKLE2 (UniProt Q86XL3): the log2 fold change is inactive: 0.029.

For the target AP3M2 (UniProt P53677), the log2 fold change was inactive: 0.109.

As for ALOX12B (UniProt O75342), the log2 fold change was inactive: -0.171.

Take AP1B1 isoform 3 (UniProt Q10567): the log2 fold change is inactive: -0.14.

With ALG12 (UniProt Q9BV10), the log2 fold change was inactive: 0.028.

ALDH3A1 (UniProt P30838): the log2 fold change is inactive: -0.001.

With ALG3 (UniProt Q92685), the log2 fold change is inactive: 0.042.

As to ANK2 (UniProt Q01484), the log2 fold change is inactive: -0.031.

Compound in another assay: CC1=CC=C(C=C1)SC2=C3C=C(SC3=CN=C2)C(=O)N
The assay is described as above. Put shortly:
as §1
Consider ALAS1 (UniProt P13196), for which the log2 fold change was inactive: 0.084.

Consider AMBRA1 isoform 5 (UniProt Q9C0C7), for which the log2 fold change is inactive: 0.185.

Take ANKRD31 (UniProt Q8N7Z5): the log2 fold change is inactive: -0.115.

Regarding ANKRD29 (UniProt Q8N6D5), the log2 fold change is inactive: -0.059.

As for ANKRD30A (UniProt Q9BXX3), the log2 fold change was inactive: -0.177.

On to ANAPC16 (UniProt Q96DE5), for which the log2 fold change was inactive: 0.075.

As to ANKRD44 isoform 2 (UniProt Q8N8A2), the log2 fold change is inactive: -0.029.

Turning to ANXA6 (UniProt E5RK69), the log2 fold change was inactive: -0.008.

Consider ANGPTL4 (UniProt M0R3A2), for which the log2 fold change was inactive: -0.113.

Turning to AKTIP isoform 2 (UniProt Q9H8T0), the log2 fold change is inactive: 0.029.

AP2S1 (UniProt M0QZ21): the log2 fold change was inactive: -0.086.

In the case of ANKHD1 (UniProt D6RHC4), the log2 fold change is inactive: 0.058.

For the target ANKRD50 (UniProt Q9ULJ7), the log2 fold change is inactive: -0.056.

Consider ANKH (UniProt Q9HCJ1), for which the log2 fold change was inactive: -0.075.

As for ANKRD16 (UniProt Q6P6B7), the log2 fold change is inactive: -0.127.

As to AP3M2 (UniProt P53677), the log2 fold change is inactive: -0.045.

With ANKS3 (UniProt Q6ZW76), the log2 fold change was inactive: -0.053.

In the case of ALG12 (UniProt Q9BV10), the log2 fold change is inactive: -0.027.

AP3D1 isoform 2 (UniProt O14617): the log2 fold change was inactive: 0.053.

Regarding ALDH3A1 (UniProt P30838), the log2 fold change is inactive: -0.119.

Consider ALDOA (UniProt H3BPS8), for which the log2 fold change was inactive: 0.

On to ALG3 (UniProt Q92685), for which the log2 fold change is inactive: 0.03.
